From patent US8278048
The exact form of at least one protein or probe is not confirmed.

Test system: BfaI restriction endonuclease
Assay: enzyme reaction in vitro
Details: 5'-thiol, 3'-biotin on SEQ:1; 37 C, 2 h, hybrid immobilised on streptavidin plate; HRP release depends on target concentration (detectable about 1 nM) and on BfaI amount; enzyme source form not stated; purified recombinant protein; label: 5'-thiol-HRP and 3'-biotin on SEQ:1

“GGTAGTGCGAAATGCCATTGCTAGTTGTTT / AAACAACTAGCAATGGCATTT [HRP-probe:target hybrid]” was tested, and the “activity on this sequence” value was “active”.
